# According to article PMC10990277:
# Target: E-HA/TurboID^Site3 (SARS-CoV-2) (UniProt P0DTC4)
# Experiment: proximity labelling
binder,measurement,value
"retention in endoplasmic reticulum sorting receptor 1 (RER1) (protein, UniProt O15258 1-196) MSEGDSVGESVHGKPSVVYRFFTRLGQIYQSWLDKSTPYTAVRWVVTLGLSFVYMIRVYLLQGWYIVTYALGIYHLNLFIAFLSPKVDPSLMEDSDDGPSLPTKQNEEFRPFIRRLPEFKFWHAATKGILVAMVCTFFDAFNVPVFWPILVMYFIMLFCITMKRQIKHMIKYRYIPFTHGKRRYRGKEDAGKAFAS",binding,binds

# Results are given in words; binding and its absence hold for the method and conditions named. Binding seen in cells or lysates may run through a third protein. A yes stands for co-enrichment or nearness to the bait. Other partners may have been found.
